We go through 36 molecules from PubChem BioAssay AID2685 (National Center for Advancing Translational Sciences (NCATS), 2010).

The other results are listed elsewhere or left out. Shown are side measurements of this screen, not its main read-out; they come without a call. Compounds called inactive in the main read-out are mostly missing here. Potencies come from curve fits of mixed quality, noted in brackets.

The nature of the assay: qHTS Assay for Lipid Storage Modulators in Drosophila S3 Cells.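 On cell number change: cells counted by Cell Tracker Red CMTPX staining in the red channel.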 The note with it: BODIPY lipid droplet fluorescence, 18-24 h; for cell number change: measured here: cell count max response, cells fed with added oleic acid. The gist of the method: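 Laser-scanning cytometry quantifies lipid droplet accumulation (500–530 nm total intensity; droplet/cell object ratio) in oleic acid-fed (400 uM added) Drosophila S3 cells treated with a concentration series. 20 uM Triacsin C defined 100% inhibition.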

The mark [1] stands for this setting: measured here: lipid fluorescence (Fed channel) AC50, cells fed with added oleic acid.
Setting [2] is: measured here: cell number channel AC50, cells fed with added oleic acid.

In the case of `COc1ccc(CNC(=O)C(c2ccco2)N(C(=O)c2ccccn2)c2ccccc2)cc1` (stereo unspecified), the cell number change stood at 12.5%. The AC50 under setting [1] is 0.731 µM [falling, single point].
Consider `O=C(NC1CC1)C1CCN(c2ncccn2)CC1`, for which the cell number change came to 28.2%.
As for `O=C(c1ccccc1Br)N1CCn2c1nc1ccccc12`, the cell number change was found to be 16.7%. The AC50 under setting [2] was 0.092 µM [rising, full curve, poor fit].
For the molecule `COc1ccc(C2c3ccc4ccccc4c3Oc3ncn(CCCO)c(=N)c32)cc1` (stereo unspecified), the cell number change is -22.3%. The AC50 under setting [1] was 29.1 µM [falling, single point].
Consider `Cn1cc([N+](=O)[O-])c(C(=O)NNC(=O)c2ccc([N+](=O)[O-])cc2Cl)n1`, for which the cell number change was -35.2%. Further, under setting [2], the AC50 was 2.91 µM [falling, partial curve]. In addition, the AC50 under setting [1] was 0.58 µM [falling, partial curve].
`CCOC(=O)/C(=N\Nc1cccc(C(F)(F)F)c1)N1CCOCC1`: the cell number change was -25.7%. Further, the AC50 under setting [1] is 3.26 µM [falling, full curve, poor fit].
Consider `Cc1ccc(S(=O)(=O)CCC(=O)Nc2nccs2)cc1`, for which the cell number change was found to be 42.1%. Besides, the AC50 under setting [2] was 9.2 µM [rising, partial curve, poor fit].
With `O=C(COc1ccc(F)cc1Br)N1CCN(S(=O)(=O)/C=C/c2ccccc2)CC1`, the cell number change was determined as 31.9%. The AC50 under setting [2] was 2.06 µM [rising, full curve].
Regarding `CC1(c2ccc3noc(-c4ccccc4)c3c2)OCCO1`, the cell number change was -10.3%. Besides, the AC50 under setting [1] was 3.66 µM [rising, partial curve].
Consider `Cc1sc2ncn(CC(=O)N3CCN(c4ccccn4)CC3)c(=O)c2c1S(=O)(=O)N1CCCCC1`, for which the cell number change was 25.4%. Further, the AC50 under setting [1] is 1.03 µM [falling, single point].
Turning to `COc1ccc(CC(=O)Nc2ccc(S(=O)(=O)Nc3cc(C)on3)cc2)cc1OC`, the cell number change was 12.9%. Moreover, the AC50 under setting [1] was 29.1 µM [rising, single point].
As to `Cc1ccc(C2CC(c3ccc(F)cc3)Nc3nc(N)nn32)cc1` (stereo unspecified), the cell number change turned out to be 10.9%. Besides, the AC50 under setting [1] is 7.31 µM [rising, partial curve, poor fit].
As for `O=C(CN1C(=O)NC2(CCCc3ccccc32)C1=O)c1ccc(Br)cc1` (stereo unspecified), the cell number change amounted to 117%. Moreover, the AC50 under setting [2] is 29.1 µM [rising, single point]. Further, under setting [1], the AC50 was 0.461 µM [rising, full curve].
As to `Cc1ccc(C(=O)Nc2c(-c3cccs3)c(=O)c3ccccc3n2C)cc1`, the cell number change is 44.5%. Besides, the AC50 under setting [2] was 10.3 µM [rising, partial curve, poor fit]. In addition, the AC50 under setting [1] is 16.4 µM [rising, partial curve].
As to `COc1ccc(/C=C2\SC(=O)N(CCC(=O)N3CCCCC3CCO)C2=O)cc1` (stereo unspecified), the cell number change came to 2.97%. In addition, the half-maximal activity concentration (AC50) under setting [1] was 29.1 µM [falling, single point].
Take `COc1ccc(-c2nnc(NC(=O)CS(=O)(=O)c3ccc(Cl)cc3)o2)c(OC)c1`: the cell number change turned out to be 41.9%. Also, the concentration at half-maximal activity (AC50) under setting [2] is 18.4 µM [rising, single point].
On to `c1ccc(-n2nnc3c(N4CCOCC4)ncnc32)cc1`, for which the cell number change was -16.1%. Further, the AC50 under setting [1] was 0.82 µM [falling, full curve].
In the case of `Cc1ccc(C)c(NC(=O)CN(C)C(=O)C2COc3ccccc3O2)c1` (stereo unspecified), the cell number change was 5.64%. Moreover, under setting [2], the AC50 is 0.517 µM [rising, full curve, poor fit]. Further, the AC50 under setting [1] was 0.146 µM [rising, full curve].
For the molecule `COc1ncccc1-c1nnn(-c2ccc(C)cc2)n1`, the cell number change is 1.72%. Besides, the AC50 under setting [1] is 0.116 µM [rising, full curve, poor fit].
With `COc1c(Cl)cc(Cl)cc1/C=C/C(=O)c1ccc(NC(=O)c2cccs2)cc1`, the cell number change is -7.46%. Also, the AC50 under setting [1] is 25.9 µM [falling, single point].
Turning to `CC(=O)c1ccc(N2CCN(S(=O)(=O)c3c(C)[nH]c(=O)[nH]c3=O)CC2)cc1`, the cell number change is -28.1%. Besides, the concentration at half-maximal activity (AC50) under setting [2] was 0.291 µM [rising, single point].
Take `C/C(=N\NC(=O)c1nnn(-c2nonc2N)c1-c1ccc2c(c1)OCO2)c1ccc(F)cc1`: the cell number change came to 30.4%. Under setting [2], the AC50 is 4.61 µM [rising, full curve, poor fit].
For `O=C(CC1C(=O)NCCN1C(=O)Nc1ccccc1)Nc1cc(Cl)cc(Cl)c1` (stereo unspecified), the cell number change was -47.5%. For the same molecule, under setting [2], the AC50 was 25.9 µM [falling, partial curve, poor fit].
Regarding `CC1(C)NC(=O)N(CC(O)CN2C(=O)CCC2=O)C1=O` (stereo unspecified), the cell number change was -6.94%. The AC50 under setting [1] was 3.26 µM [falling, single point].
As for `Cc1cccc(C)c1NC(=O)c1ccc([N+](=O)[O-])s1`, the cell number change is -58.1%. Further, the AC50 under setting [2] is 16.4 µM [falling, partial curve]. The AC50 under setting [1] was 10.3 µM [falling, partial curve].
For the molecule `COc1ccc(OCCCC(=O)OCC(=O)Nc2ncc(Cl)cc2Cl)cc1`, the cell number change is -15%.
For the molecule `c1ccc(CSc2ncnc3sccc23)cc1`, the cell number change was -17%. For the same molecule, under setting [1], the AC50 is 0.651 µM [falling, full curve].
On to `Cc1ccccc1Cn1nc(C)c(NC(=O)c2noc3c2CCCC3)c1C`, for which the AC50 reads like this: under setting [2], 0.259 µM [rising, partial curve, poor fit]; under setting [1], 0.0731 µM [rising, full curve, poor fit].
As to `CCOC(=O)c1cc(CC)sc1NC(=O)CN1C(=O)C(=O)N(CC(C)C)C1=O`, the cell number change was found to be 35%.
Turning to `Cc1ccc(NC(=O)c2sc3nc(C)cc(C)c3c2N)cc1`, the AC50 reads like this: under setting [2], 6.51 µM [rising, single point]; under setting [1], 6.51 µM [rising, single point].
In the case of `O=C(CSc1nc2ccccc2c(=O)n1CC1CCCO1)Nc1ccccc1` (stereo unspecified), the cell number change came out at 16.8%. Also, the AC50 under setting [1] was 0.206 µM [rising, single point].
`O=C(NCCN1CCCC1=O)C1CCC(=O)N(CCc2cccc(F)c2)C1` (stereo unspecified): the cell number change turned out to be 25.2%. For the same molecule, the AC50 under setting [2] is 0.651 µM [rising, partial curve, poor fit].
Consider `O=C(Nc1ccc2c(c1)CCC2)c1cc(S(=O)(=O)Nc2ccc(F)cc2)c(Cl)cc1Cl`, for which the cell number change was -1.02%. Further, the AC50 under setting [1] is 6.51 µM [rising, single point].
Turning to `CCCn1nnc(NC(=O)COc2ccc(C3CCCCC3)cc2)n1`, the cell number change is -1.29%. In addition, under setting [1], the AC50 is 25.9 µM [falling, single point].
Turning to `COc1cc2ccc(=O)oc2cc1O`, the cell number change was 41.4%. For the same molecule, under setting [2], the AC50 is 20.6 µM [rising, single point]. Moreover, the AC50 under setting [1] was 18.4 µM [rising, single point].
`Cc1ccc(S(=O)(=O)N2CCCC(C(=O)Nc3ccc(NC(=O)c4ccccn4)cc3)C2)cc1` (stereo unspecified): the cell number change was -35.8%. Also, the AC50 under setting [2] was 16.4 µM [falling, partial curve]. The AC50 under setting [1] is 23.1 µM [falling, partial curve].
